Data source: PubChem BioAssay AID1508597 (Cure First, 2020)
Shown is a random part of the about 2,100 reagents, under one of the conditions tested. 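Calls flag viability under 80% in either arm, not effects specific to rucaparib; the reference for percent is not stated.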 Unmarked entries are inactive. Reagent sequences are not shown. The record does not give: the 100% reference.

Test: 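Survival screen with siRNA in ovarian cancer cells derived from patients, with or without rucaparib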 (primary screen)
Cells: human ovarian carcinoma lines grown from tumours: OCI-P5x (papillary serous) and OCI-C5x (clear cell)
Reagent: siRNA pool against human genes, 1.25 pmol siRNA per well
Timing: 72 h or 96 h, depending on the cell culture
Challenge: rucaparib 20 µM (about IC30) or vehicle, present until read-out
Rucaparib or vehicle: Vehicle
Cell line: OCI-P5x (serous)
Detection: 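ATP luminescence measured at 72 or 96 h according to the culture, then normalised and expressed as percent viability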
Direction: viability, normalised: higher = more viable cells remaining
Call rule: 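a well counts as a hit if its normalised viability is under 80 percent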
Calls: active = viability under 80%; inactive = viability 80% or more

Target gene	technical replicate	viability, normalised (%)
TFAP2A (transcription factor AP-2 alpha)	1	77.4 (active)
TFAP2A (transcription factor AP-2 alpha)	2	73.9 (active)
TFAP2A (transcription factor AP-2 alpha)	3	82.8
TSSK4 (testis specific serine kinase 4)	1	67 (active)
TSSK4 (testis specific serine kinase 4)	2	61.1 (active)
TSSK4 (testis specific serine kinase 4)	3	58.1 (active)
ARAF (A-Raf proto-oncogene, serine/threonine kinase)	1	94.8
ARAF (A-Raf proto-oncogene, serine/threonine kinase)	2	64.9 (active)
ARAF (A-Raf proto-oncogene, serine/threonine kinase)	3	83.5
PCSK9 (proprotein convertase subtilisin/kexin type 9)	1	64 (active)
PCSK9 (proprotein convertase subtilisin/kexin type 9)	2	68.6 (active)
PCSK9 (proprotein convertase subtilisin/kexin type 9)	3	150
MPP4 (MAGUK p55 scaffold protein 4)	1	66.5 (active)
MPP4 (MAGUK p55 scaffold protein 4)	2	71.6 (active)
MPP4 (MAGUK p55 scaffold protein 4)	3	77 (active)
PTAR1 (protein prenyltransferase alpha subunit repeat containing 1)	1	66.3 (active)
PTAR1 (protein prenyltransferase alpha subunit repeat containing 1)	2	72.3 (active)
PTAR1 (protein prenyltransferase alpha subunit repeat containing 1)	3	94.7
NDUFA10 (NADH:ubiquinone oxidoreductase subunit A10)	1	98.3
NDUFA10 (NADH:ubiquinone oxidoreductase subunit A10)	2	87.8
NDUFA10 (NADH:ubiquinone oxidoreductase subunit A10)	3	99.7
RIPK4 (receptor interacting serine/threonine kinase 4)	1	90.8
RIPK4 (receptor interacting serine/threonine kinase 4)	2	73.7 (active)
RIPK4 (receptor interacting serine/threonine kinase 4)	3	83.2
TAF7 (TATA-box binding protein associated factor 7)	1	63.2 (active)
TAF7 (TATA-box binding protein associated factor 7)	2	71.9 (active)
TAF7 (TATA-box binding protein associated factor 7)	3	85.9
KSR1 (kinase suppressor of ras 1)	1	88.3
KSR1 (kinase suppressor of ras 1)	2	66.9 (active)
KSR1 (kinase suppressor of ras 1)	3	60.9 (active)
MORC1 (MORC family CW-type zinc finger 1)	1	65.3 (active)
MORC1 (MORC family CW-type zinc finger 1)	2	62 (active)
MORC1 (MORC family CW-type zinc finger 1)	3	70 (active)
NABP2 (nucleic acid binding protein 2)	1	66.2 (active)
NABP2 (nucleic acid binding protein 2)	2	58.8 (active)
NABP2 (nucleic acid binding protein 2)	3	31.6 (active)
RAD51C (RAD51 paralog C)	1	68.7 (active)
RAD51C (RAD51 paralog C)	2	36.5 (active)
RAD51C (RAD51 paralog C)	3	64.5 (active)
FBXO10 (F-box protein 10)	1	70.7 (active)
FBXO10 (F-box protein 10)	2	67.7 (active)
FBXO10 (F-box protein 10)	3	72.4 (active)
PRDM6 (PR/SET domain 6)	1	48.8 (active)
PRDM6 (PR/SET domain 6)	2	70.8 (active)
PRDM6 (PR/SET domain 6)	3	140
ITK (IL2 inducible T cell kinase)	1	103
ITK (IL2 inducible T cell kinase)	2	87.8
ITK (IL2 inducible T cell kinase)	3	66.6 (active)
USP21 (ubiquitin specific peptidase 21)	1	84.4
USP21 (ubiquitin specific peptidase 21)	2	65.6 (active)
USP21 (ubiquitin specific peptidase 21)	3	98.9
SFPQ (splicing factor proline and glutamine rich)	1	46.4 (active)
SFPQ (splicing factor proline and glutamine rich)	2	42.4 (active)
SFPQ (splicing factor proline and glutamine rich)	3	54.7 (active)
AIPL1 (AIP like 1 HSP90 co-chaperone)	1	64.4 (active)
AIPL1 (AIP like 1 HSP90 co-chaperone)	2	62.9 (active)
AIPL1 (AIP like 1 HSP90 co-chaperone)	3	67.2 (active)
DDX42 (DEAD-box helicase 42)	1	56.2 (active)
DDX42 (DEAD-box helicase 42)	2	60.5 (active)
DDX42 (DEAD-box helicase 42)	3	65.8 (active)
ULK2 (unc-51 like autophagy activating kinase 2)	1	70.1 (active)
ULK2 (unc-51 like autophagy activating kinase 2)	2	79.2 (active)
ULK2 (unc-51 like autophagy activating kinase 2)	3	81.6
SCML2 (Scm polycomb group protein like 2)	1	65.3 (active)
SCML2 (Scm polycomb group protein like 2)	2	80.7
SCML2 (Scm polycomb group protein like 2)	3	78.6 (active)
PCK1 (phosphoenolpyruvate carboxykinase 1)	1	60.3 (active)
PCK1 (phosphoenolpyruvate carboxykinase 1)	2	82.1
PCK1 (phosphoenolpyruvate carboxykinase 1)	3	78.5 (active)
MTF2 (metal response element binding transcription factor 2)	1	63 (active)
MTF2 (metal response element binding transcription factor 2)	2	61.7 (active)
MTF2 (metal response element binding transcription factor 2)	3	69.2 (active)
RIOK2 (RIO kinase 2)	1	88.4
RIOK2 (RIO kinase 2)	2	65 (active)
RIOK2 (RIO kinase 2)	3	70.2 (active)

12 successive entries already listed, for reference:
Target gene	technical replicate	viability, normalised (%)
FBXO10 (F-box protein 10)	1	70.7 (active)
FBXO10 (F-box protein 10)	2	67.7 (active)
FBXO10 (F-box protein 10)	3	72.4 (active)
PRDM6 (PR/SET domain 6)	1	48.8 (active)
PRDM6 (PR/SET domain 6)	2	70.8 (active)
PRDM6 (PR/SET domain 6)	3	140
ITK (IL2 inducible T cell kinase)	1	103
ITK (IL2 inducible T cell kinase)	2	87.8
ITK (IL2 inducible T cell kinase)	3	66.6 (active)
USP21 (ubiquitin specific peptidase 21)	1	84.4
USP21 (ubiquitin specific peptidase 21)	2	65.6 (active)
USP21 (ubiquitin specific peptidase 21)	3	98.9
